Experimental data reported in article PMC9983901.

Sequences of proteins named here, by UniProt entry; tags and fusion partners are left off. A change or cut given only in a name is not applied to a line headed by its entry.
UniProt O76388: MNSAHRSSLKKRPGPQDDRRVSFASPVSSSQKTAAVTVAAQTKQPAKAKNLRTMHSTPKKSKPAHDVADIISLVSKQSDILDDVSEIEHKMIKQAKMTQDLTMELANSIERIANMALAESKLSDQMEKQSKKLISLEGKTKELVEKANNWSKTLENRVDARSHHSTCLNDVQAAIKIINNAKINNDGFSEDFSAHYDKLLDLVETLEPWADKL
UniProt Q7JKT6: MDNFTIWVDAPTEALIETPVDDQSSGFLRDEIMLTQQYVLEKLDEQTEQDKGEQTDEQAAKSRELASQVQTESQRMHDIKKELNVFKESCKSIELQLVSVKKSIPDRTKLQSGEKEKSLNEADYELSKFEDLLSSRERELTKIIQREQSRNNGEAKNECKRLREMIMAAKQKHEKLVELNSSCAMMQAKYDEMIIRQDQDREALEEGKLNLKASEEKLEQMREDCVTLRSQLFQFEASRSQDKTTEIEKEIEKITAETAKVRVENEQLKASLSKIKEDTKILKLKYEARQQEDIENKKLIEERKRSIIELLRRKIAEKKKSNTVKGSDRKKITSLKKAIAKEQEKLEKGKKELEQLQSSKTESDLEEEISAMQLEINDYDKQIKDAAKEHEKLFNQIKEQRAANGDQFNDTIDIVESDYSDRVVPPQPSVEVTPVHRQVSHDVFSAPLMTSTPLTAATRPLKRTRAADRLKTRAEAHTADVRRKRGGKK

What was measured:
[1] = target: SYP-2::GFP (C. elegans) (UniProt O76388); experiment: co-IP; immunoprecipitation with a GFP antibody from whole worm lysates (gras-1::gfp, syp-2::gfp, wild type); Western blot with anti-SYP-3
[2] = target: SYP-1 full length (Gal4 DNA binding domain fusion) (C. elegans) (UniProt Q7JKT6); experiment: two-hybrid; GRAS-1 constructs in pVV213 (activation domain), SYP constructs in pVV212 (Gal4 DNA binding domain); strains mated on YPD, selected on SC Leu- Trp-
[3] = target: SYP-2 full length (Gal4 DNA binding domain fusion) (C. elegans) (UniProt O76388); experiment: as above
[4] = target: SYP-3 ΔC (Gal4 DNA binding domain fusion) (C. elegans); experiment: as above
[5] = target: SYP-4 ΔN (Gal4 DNA binding domain fusion) (C. elegans); experiment: as above

Binder | binding [1] | binding [2] | binding [3] | binding [4] | binding [5]
SYP-3 (protein, UniProt O62238 1-224) MNFEKLVSQAVNGDRFKIFCGQLTEFTNSLAGEREAIEKGMRQIETQQLEAETSFTERIAEDRVKCAAQRESLERQLQDLTATDNKLSEQKRDWEERQEKAYDELMSYLENEDVDSAGTQFGDHFNSLIKSMNNLSHDSMNGQFNSLKNNLDELNIEKKQLEVAIADQSSTISEMIPSLRPTCGATYKERNTLRIIFHYQVAKLRSEYQKCRLQEEALKARLST | binds | – | – | – | –
GRAS-1 full length (activation domain fusion) (protein, UniProt Q93654 1-245) MDHIDAHSAVSTSSSSSKYDTPDDNISEQRLLCDAKEEYPLNDYLFDGINQESAQRSLLLCRQTFETSFGFALQSYVFKRTSSNSYERITYVDYVSADSPADRCGITRGDMVIAVNEKSVVTASHAEIVESIAQCLQVSLVLVFKDVARIVELSMRSIQLRFMLDAKIRELRMLEKTEEDLQALYDDEHGNEEEDESLESTLYELDEELKNVQNPQEKEANGTDYRHLIRINSSTSVGTPQVTRL | – | binds weakly | binds weakly | no binding | no binding
GRAS-1 ΔCt^1-163 (domain or fragment, UniProt Q93654 1-163) MDHIDAHSAVSTSSSSSKYDTPDDNISEQRLLCDAKEEYPLNDYLFDGINQESAQRSLLLCRQTFETSFGFALQSYVFKRTSSNSYERITYVDYVSADSPADRCGITRGDMVIAVNEKSVVTASHAEIVESIAQCLQVSLVLVFKDVARIVELSMRSIQLRFM | – | binds weakly | binds weakly | – | –
GRAS-1 ΔNt^69-245 (domain or fragment, UniProt Q93654 69-245) FGFALQSYVFKRTSSNSYERITYVDYVSADSPADRCGITRGDMVIAVNEKSVVTASHAEIVESIAQCLQVSLVLVFKDVARIVELSMRSIQLRFMLDAKIRELRMLEKTEEDLQALYDDEHGNEEEDESLESTLYELDEELKNVQNPQEKEANGTDYRHLIRINSSTSVGTPQVTRL | – | no binding | no binding | – | –

These are yes or no findings as the source states them, for the method shown. For part of these data: A result given as binding can be weak or reduced; the word gives no strength. For part of these data: Tags and fused reporters may be left off the sequences shown. For part of these data: Binding seen in cells or lysates may run through a third protein.
